Paper PMC6713327
Results are given in words; binding and its absence hold for the method and conditions named. In cells and extracts the contact can be indirect. Some results given as binding are weak or reduced against the parent protein; the word gives no strength.

Sequences of proteins named here, by UniProt entry; tags and fusion partners are left off.
UniProt O00443: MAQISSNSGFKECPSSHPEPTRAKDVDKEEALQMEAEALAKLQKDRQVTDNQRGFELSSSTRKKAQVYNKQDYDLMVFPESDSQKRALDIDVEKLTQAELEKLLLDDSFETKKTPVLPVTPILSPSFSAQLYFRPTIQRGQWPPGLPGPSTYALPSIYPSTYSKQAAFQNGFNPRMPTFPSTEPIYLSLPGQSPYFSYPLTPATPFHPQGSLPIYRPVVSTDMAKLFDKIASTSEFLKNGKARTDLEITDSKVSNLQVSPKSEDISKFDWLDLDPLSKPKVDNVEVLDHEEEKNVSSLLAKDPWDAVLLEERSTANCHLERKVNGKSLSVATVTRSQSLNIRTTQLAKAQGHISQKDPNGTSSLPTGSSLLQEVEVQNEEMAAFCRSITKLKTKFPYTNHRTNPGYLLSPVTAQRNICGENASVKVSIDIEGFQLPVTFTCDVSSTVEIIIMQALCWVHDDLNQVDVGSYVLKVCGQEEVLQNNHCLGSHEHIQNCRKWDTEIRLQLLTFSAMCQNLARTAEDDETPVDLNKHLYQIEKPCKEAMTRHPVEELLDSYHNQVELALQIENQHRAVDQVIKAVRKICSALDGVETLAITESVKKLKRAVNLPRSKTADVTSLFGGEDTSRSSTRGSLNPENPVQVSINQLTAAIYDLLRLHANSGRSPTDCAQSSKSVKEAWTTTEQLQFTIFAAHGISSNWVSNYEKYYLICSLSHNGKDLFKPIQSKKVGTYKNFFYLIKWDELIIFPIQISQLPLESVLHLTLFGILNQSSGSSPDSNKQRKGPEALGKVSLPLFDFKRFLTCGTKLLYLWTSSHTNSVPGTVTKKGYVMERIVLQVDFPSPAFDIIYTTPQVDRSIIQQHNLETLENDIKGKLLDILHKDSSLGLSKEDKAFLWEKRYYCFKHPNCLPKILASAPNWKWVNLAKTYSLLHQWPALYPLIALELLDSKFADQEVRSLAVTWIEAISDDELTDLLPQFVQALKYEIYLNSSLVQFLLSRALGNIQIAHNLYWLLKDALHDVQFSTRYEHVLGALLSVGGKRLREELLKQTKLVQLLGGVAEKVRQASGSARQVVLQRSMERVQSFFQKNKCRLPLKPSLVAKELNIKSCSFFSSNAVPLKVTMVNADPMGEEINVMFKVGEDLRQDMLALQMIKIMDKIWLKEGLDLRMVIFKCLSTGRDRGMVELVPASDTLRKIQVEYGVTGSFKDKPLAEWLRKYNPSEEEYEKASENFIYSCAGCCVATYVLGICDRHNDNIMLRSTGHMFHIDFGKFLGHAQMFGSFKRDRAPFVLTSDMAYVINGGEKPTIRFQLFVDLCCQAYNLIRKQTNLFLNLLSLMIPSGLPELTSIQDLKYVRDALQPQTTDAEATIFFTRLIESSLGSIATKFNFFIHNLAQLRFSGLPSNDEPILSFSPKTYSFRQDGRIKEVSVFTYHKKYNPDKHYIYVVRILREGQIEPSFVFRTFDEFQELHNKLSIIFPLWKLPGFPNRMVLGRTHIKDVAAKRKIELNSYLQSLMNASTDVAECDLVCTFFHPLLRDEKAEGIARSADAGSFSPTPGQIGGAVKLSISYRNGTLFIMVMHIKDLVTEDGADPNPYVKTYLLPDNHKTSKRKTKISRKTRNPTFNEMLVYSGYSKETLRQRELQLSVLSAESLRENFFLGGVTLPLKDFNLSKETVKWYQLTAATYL

Molecular target: T1, FANCA (human (endogenous in 293FT and EndoC-βH3)) (UniProt O15360)
T1 sequence: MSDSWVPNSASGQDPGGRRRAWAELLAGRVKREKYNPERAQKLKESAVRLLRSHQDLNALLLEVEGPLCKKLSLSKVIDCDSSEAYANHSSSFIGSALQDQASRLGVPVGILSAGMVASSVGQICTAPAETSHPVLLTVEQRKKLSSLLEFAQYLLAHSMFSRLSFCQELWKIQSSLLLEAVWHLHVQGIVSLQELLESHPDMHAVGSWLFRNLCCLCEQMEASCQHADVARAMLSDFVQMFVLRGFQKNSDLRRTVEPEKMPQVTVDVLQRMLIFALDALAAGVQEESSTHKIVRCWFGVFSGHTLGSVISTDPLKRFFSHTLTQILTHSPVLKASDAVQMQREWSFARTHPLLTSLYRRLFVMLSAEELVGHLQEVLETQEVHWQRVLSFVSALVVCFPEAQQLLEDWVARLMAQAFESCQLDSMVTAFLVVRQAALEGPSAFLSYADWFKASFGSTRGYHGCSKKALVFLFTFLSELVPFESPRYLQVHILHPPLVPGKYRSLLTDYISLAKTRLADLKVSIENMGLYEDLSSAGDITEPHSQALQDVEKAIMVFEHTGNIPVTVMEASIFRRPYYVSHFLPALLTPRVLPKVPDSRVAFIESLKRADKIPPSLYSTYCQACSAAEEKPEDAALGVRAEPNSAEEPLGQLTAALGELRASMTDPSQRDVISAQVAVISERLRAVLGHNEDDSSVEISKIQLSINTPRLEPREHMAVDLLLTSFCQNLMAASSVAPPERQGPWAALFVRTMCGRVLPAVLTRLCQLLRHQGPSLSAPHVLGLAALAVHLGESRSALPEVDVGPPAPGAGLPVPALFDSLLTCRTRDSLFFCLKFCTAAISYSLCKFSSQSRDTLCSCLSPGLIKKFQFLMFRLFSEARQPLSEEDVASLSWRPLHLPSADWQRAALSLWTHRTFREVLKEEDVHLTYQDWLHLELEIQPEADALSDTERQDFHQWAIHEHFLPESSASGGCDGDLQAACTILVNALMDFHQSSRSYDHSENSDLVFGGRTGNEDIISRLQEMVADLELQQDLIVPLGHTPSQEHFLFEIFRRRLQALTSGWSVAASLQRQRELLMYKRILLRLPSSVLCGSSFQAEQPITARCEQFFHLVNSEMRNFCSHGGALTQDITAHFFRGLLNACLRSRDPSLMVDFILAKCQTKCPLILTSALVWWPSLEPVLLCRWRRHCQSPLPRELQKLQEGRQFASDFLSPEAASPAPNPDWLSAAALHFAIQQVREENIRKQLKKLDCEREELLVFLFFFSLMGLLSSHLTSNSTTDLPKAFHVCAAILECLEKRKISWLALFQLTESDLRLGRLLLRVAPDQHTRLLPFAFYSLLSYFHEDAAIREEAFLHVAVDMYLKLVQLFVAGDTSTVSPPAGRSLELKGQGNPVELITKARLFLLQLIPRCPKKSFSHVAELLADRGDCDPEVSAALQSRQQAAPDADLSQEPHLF
Assay: co-IP; endogenous FANCA precipitated from EndoC-βH3 lysate with anti-FANCA antibody on Dynabeads; western blot for PIK3C2A and TFRC

For “Phosphatidylinositol 4-phosphate 3-kinase C2 domain-containing subunit alpha (from UniProt O00443 1-1686)”, the binding was “binds”.
